{
  "source": "paper PMC8464063",
  "about": "“The bacterial iron sensor IdeR recognizes its DNA targets by indirect readout”",
  "target": "T1, IdeR WT (Saccharopolyspora erythraea DSM 40517) (UniProt A0ABF7PL34)",
  "T1 sequence (looked up)": "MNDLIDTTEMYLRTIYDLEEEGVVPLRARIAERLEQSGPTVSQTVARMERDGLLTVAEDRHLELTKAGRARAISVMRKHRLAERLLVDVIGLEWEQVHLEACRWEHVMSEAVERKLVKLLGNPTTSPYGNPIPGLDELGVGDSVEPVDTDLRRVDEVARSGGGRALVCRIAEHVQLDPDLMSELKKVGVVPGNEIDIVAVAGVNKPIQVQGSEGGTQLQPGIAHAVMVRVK",
  "assay": "EMSA",
  "conditions": "Mn2+ titration, binding from 15 uM, less efficient than Co2+/Fe2+, 750 nM dimer; EMSA: 15 mM Tris-acetate pH 7.3, 4 mM K-acetate, 10% glycerol, 17 ng/ul poly(dI-dC), 30 nM DNA, 30 uM Co2+, IdeR 15 nM-2.25 uM dimer, 20 min room temperature; recombinant protein; residues 1-231; label: 5' FAM on strand 1",
  "note": "The exact form of at least one protein or probe is not confirmed. The comparison behind a weaker result is the experiment's own reference, which may not be listed here. Protein sequences can lack the tags named with them.",
  "data": [
    {"sequence": "CGTACTTTGGTAAAGCTAACCTAAGTCACC (double strand) [C10S1]", "values": [
      {"measurement": "binding result", "result": "binds more weakly"}
    ]}
  ]
}
